# Reference: the supplement of paper PMC5836539
# Amino acid sequences for entries named in this document (tags omitted). A change or cut given only in a name is not applied to a line headed by its entry.
# UniProt Q15311: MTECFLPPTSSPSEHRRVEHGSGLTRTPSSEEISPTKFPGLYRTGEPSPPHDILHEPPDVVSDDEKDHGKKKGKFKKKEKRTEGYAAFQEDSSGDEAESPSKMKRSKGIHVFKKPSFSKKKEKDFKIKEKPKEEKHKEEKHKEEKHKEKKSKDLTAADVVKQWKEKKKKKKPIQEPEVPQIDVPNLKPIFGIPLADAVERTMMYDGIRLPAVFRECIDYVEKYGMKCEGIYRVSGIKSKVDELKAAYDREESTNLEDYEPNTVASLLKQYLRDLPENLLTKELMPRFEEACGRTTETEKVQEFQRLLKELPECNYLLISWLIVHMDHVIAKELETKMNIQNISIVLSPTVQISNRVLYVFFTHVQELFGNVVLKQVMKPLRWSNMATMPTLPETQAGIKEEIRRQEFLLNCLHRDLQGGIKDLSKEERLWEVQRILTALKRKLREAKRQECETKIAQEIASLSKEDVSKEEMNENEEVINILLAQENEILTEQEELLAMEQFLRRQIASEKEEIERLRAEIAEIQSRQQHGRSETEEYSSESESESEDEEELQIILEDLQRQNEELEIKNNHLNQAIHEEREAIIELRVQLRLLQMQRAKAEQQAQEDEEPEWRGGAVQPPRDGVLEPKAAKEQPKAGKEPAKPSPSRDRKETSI
# UniProt P06400: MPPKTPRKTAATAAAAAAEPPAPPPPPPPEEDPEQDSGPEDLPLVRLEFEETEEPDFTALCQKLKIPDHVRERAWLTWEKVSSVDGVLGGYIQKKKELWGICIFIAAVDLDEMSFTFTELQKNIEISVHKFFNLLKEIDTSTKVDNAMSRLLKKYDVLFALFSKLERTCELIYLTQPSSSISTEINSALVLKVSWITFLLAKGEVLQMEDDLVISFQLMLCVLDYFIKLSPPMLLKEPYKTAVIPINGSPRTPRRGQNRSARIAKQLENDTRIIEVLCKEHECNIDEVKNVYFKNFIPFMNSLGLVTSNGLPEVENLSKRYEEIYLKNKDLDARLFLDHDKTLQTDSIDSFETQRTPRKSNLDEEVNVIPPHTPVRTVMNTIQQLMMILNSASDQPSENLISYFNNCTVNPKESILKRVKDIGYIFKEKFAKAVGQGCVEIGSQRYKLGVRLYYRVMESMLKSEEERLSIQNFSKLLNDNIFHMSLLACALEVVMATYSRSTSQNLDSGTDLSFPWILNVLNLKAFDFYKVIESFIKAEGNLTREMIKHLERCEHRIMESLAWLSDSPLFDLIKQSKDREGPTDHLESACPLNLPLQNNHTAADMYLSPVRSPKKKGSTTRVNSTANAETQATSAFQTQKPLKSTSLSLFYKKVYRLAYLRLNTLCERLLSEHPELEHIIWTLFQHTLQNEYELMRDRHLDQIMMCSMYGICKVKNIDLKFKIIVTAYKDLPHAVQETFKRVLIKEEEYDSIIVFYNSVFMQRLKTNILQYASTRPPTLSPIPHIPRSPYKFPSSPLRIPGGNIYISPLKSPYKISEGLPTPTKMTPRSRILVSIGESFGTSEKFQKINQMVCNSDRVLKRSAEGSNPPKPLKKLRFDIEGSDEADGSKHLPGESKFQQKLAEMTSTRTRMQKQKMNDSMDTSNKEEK
# UniProt Q9BYM8: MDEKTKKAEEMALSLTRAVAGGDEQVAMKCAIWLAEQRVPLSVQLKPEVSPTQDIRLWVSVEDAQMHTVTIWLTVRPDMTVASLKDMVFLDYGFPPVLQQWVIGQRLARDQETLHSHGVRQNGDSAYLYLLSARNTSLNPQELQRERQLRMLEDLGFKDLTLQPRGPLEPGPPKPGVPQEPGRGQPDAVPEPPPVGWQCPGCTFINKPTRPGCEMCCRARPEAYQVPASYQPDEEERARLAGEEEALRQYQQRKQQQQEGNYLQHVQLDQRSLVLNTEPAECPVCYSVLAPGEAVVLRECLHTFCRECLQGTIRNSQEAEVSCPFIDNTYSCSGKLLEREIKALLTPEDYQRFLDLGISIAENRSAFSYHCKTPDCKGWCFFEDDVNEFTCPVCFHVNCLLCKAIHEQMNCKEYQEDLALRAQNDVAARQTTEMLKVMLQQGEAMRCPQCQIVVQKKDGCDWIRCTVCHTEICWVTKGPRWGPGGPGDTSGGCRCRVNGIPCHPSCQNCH
# UniProt Q9NTZ6: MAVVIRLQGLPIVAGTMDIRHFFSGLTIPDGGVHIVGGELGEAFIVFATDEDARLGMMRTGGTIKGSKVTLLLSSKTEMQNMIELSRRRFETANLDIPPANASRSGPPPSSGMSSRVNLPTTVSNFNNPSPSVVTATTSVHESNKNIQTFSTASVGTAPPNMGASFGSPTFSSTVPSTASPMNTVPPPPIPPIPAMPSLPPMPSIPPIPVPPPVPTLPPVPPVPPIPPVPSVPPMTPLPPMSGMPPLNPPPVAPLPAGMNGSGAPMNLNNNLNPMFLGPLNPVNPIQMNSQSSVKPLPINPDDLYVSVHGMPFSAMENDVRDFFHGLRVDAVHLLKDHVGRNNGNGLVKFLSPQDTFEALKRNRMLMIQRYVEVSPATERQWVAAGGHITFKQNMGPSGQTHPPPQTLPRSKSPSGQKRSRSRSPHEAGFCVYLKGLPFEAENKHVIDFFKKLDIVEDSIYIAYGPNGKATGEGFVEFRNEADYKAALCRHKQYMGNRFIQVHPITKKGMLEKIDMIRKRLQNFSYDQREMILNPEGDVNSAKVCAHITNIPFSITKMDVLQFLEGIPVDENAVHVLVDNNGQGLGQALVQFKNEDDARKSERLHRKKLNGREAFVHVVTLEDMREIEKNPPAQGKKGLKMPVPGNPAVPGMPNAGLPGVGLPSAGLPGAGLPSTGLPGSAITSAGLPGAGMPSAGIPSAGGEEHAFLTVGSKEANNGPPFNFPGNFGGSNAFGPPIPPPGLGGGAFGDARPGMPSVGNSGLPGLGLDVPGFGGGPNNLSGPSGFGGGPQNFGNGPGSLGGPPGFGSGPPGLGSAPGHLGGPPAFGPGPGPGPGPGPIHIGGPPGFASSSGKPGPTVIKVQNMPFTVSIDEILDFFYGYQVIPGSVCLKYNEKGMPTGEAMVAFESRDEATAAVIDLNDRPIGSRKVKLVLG
# UniProt P49756, whole entry, looked up: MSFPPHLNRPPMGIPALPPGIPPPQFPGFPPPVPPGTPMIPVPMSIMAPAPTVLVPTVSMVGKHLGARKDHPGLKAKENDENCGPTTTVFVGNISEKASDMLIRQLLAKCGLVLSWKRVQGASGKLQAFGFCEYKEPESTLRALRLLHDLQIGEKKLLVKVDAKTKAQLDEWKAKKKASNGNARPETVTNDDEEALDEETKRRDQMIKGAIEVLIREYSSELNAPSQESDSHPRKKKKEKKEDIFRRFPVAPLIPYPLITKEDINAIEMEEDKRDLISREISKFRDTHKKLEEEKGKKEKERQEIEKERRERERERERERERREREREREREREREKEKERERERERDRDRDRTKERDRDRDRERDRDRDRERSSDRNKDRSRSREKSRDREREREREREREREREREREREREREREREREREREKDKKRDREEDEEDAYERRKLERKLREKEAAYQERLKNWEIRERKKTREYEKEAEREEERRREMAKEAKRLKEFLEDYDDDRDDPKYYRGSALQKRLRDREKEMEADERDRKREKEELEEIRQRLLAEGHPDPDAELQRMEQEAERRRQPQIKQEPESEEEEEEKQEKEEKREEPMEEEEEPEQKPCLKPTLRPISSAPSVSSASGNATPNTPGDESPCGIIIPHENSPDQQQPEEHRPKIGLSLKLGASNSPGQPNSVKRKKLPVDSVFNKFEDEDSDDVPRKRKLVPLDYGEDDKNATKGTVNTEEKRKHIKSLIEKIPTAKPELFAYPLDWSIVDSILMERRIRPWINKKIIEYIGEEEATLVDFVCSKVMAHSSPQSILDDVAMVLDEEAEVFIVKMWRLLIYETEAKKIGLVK
# UniProt Q9H6H4: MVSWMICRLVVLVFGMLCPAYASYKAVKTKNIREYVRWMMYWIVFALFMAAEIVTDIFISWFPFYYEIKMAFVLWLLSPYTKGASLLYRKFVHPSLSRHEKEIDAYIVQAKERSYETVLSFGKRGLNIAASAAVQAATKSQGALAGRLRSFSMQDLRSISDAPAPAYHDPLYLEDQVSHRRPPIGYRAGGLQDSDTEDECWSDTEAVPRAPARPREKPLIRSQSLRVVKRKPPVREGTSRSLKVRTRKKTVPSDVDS
# UniProt O75446: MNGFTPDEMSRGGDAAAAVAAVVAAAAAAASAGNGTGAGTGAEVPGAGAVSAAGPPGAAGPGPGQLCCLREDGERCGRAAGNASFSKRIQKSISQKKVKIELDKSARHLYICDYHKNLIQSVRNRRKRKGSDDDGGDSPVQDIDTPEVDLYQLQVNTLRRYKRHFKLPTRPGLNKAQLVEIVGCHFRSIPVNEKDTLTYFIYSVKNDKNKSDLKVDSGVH
# UniProt Q9HAJ7: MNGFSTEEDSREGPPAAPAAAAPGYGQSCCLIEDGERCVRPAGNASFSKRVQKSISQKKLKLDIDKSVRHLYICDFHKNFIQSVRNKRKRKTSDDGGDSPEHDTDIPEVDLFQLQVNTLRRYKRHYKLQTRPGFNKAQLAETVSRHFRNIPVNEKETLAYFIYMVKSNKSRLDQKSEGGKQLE
# UniProt O43290: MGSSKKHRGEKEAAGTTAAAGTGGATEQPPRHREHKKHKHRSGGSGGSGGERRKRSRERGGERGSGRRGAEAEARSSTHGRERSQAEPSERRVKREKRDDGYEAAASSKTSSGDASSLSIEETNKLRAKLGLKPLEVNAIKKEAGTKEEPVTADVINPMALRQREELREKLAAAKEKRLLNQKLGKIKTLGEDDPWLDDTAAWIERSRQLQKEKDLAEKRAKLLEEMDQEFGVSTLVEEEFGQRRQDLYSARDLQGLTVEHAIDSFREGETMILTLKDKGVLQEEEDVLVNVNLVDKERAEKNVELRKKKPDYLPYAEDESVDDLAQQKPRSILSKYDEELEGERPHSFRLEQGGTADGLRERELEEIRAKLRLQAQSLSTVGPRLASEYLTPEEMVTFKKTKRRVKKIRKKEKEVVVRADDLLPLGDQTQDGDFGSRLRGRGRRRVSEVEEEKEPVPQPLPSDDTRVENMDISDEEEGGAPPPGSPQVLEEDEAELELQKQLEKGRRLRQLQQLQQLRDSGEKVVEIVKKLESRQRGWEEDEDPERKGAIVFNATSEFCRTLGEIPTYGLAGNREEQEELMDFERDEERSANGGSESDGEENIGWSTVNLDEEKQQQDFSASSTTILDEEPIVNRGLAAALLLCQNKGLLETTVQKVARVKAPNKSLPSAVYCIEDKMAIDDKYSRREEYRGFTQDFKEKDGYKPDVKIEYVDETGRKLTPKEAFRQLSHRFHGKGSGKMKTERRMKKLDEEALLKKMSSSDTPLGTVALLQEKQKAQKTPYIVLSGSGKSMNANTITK
# UniProt O94885: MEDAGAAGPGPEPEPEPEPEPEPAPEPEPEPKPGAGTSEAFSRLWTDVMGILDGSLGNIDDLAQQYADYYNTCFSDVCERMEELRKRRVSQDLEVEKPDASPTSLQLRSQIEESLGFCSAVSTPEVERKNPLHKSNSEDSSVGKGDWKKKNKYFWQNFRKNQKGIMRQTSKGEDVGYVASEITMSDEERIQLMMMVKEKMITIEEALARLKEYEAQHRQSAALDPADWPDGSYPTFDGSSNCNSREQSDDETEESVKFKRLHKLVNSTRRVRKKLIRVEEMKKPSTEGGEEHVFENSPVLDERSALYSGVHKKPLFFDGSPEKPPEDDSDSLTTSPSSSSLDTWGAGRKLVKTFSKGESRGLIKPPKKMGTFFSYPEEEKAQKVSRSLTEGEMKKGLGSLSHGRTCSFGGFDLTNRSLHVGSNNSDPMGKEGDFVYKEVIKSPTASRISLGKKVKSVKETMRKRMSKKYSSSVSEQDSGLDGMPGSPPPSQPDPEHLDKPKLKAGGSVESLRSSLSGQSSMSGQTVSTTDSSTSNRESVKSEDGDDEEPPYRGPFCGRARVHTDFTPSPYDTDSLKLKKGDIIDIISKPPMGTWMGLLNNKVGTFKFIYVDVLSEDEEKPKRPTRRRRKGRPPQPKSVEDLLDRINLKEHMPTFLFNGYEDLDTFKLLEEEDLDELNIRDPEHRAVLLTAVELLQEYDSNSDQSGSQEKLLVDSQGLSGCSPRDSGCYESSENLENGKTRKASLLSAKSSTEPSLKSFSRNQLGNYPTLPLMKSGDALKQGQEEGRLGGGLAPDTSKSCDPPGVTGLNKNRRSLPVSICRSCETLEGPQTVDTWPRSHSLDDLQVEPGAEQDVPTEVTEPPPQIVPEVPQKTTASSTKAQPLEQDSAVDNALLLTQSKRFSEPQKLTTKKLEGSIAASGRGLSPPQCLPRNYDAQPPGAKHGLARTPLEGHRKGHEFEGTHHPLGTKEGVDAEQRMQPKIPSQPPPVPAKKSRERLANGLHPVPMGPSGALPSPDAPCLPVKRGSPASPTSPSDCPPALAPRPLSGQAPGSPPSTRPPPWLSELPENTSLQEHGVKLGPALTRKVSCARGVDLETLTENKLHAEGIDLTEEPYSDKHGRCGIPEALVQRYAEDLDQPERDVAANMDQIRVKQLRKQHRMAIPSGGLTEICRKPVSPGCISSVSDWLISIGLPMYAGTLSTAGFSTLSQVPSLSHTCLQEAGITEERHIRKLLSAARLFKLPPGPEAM
# ± gives the standard deviation of the averaged measurements. This data set is noisy: repeats of one test often differ as much as different tests do.
# Compound: CC[C@@H](C)Nc1cc(C(=O)N[C@H]2C[C@H]3CC[C@@H](C2)N3c2ccc(C(=O)C3CC3)cn2)c(C)cc1C(N)=O [XL888]
# Assay: phosphopeptide melting temperature shift (XL888 minus DMSO); higher = stabilised by drug treatment
# Conditions: 100 µM; treatment time 2 h; layout: intact cells; SK-Mel 28
# Description: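 Phospho-TPP in intact SK-Mel 28 cells treated with 100 uM XL888 or DMSO for 2 h, heated at 10 temperatures (37-67 C) for 3 min, soluble fraction TMT10plex-labelled and TiO2 phospho-enriched. Melting curves were fitted per phosphopeptide; the value is the melting point difference (drug minus vehicle) in each of two biological replicates.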
row,Target,phosphopeptide melting temperature shift
1,RALBP1 phosphosite_62 (phosphosite position: 62) (UniProt Q15311),-0.599 ± 1.2 °C
2,RANBP2 phosphosite_2008 (phosphosite position: 2008) (UniProt P49792),-1.23 °C
3,RANBP2 phosphosite_2900 (phosphosite position: 2900) (UniProt P49792),1.82 ± 0.95 °C
4,RANGAP1 phosphosite_428 (phosphosite position: 428) (UniProt P46060),-0.0982 ± 0.43 °C
5,RANGAP1 phosphosite_442 (phosphosite position: 442) (UniProt P46060),-0.297 ± 0.15 °C
6,RAPH1 phosphosite_1154 (phosphosite position: 1154) (UniProt Q70E73),-1.04 °C
7,RB1 phosphosite_37 (phosphosite position: 37) (UniProt P06400),2.32 ± 0.2 °C
8,RBCK1 phosphosite_50 (phosphosite position: 50) (UniProt Q9BYM8),1.38 °C
9,RBM5 phosphosite_624 (phosphosite position: 624) (UniProt P52756),5.81 °C
10,RBM12 phosphosite_422 (phosphosite position: 422) (UniProt Q9NTZ6),0.651 ± 0.3 °C
11,RBM12 phosphosite_424 (phosphosite position: 424) (UniProt Q9NTZ6),0.651 ± 0.3 °C
12,RBM12B phosphosite_278 (phosphosite position: 278) (UniProt Q8IXT5),1.65 ± 0.53 °C
13,RBM12B phosphosite_280 (phosphosite position: 280) (UniProt Q8IXT5),1.65 ± 0.53 °C
14,RBM15B phosphosite_267 (phosphosite position: 267) (UniProt Q8NDT2),1.26 °C
15,RBM25 phosphosite_583 (phosphosite position: 583) (UniProt P49756),0.763 °C
16,RBM25 phosphosite_677 (phosphosite position: 677) (UniProt P49756),1.34 °C
17,RBM25 phosphosite_703 (phosphosite position: 703) (UniProt P49756),1.65 °C
18,RBM33 phosphosite_973 (phosphosite position: 973) (UniProt Q96EV2),-3.46 °C

# Retrieved one by one from the list above, 2 records:
row,Target,phosphopeptide melting temperature shift
6,RAPH1 phosphosite_1154 (phosphosite position: 1154) (UniProt Q70E73),-1.04 °C
11,RBM12 phosphosite_424 (phosphosite position: 424) (UniProt Q9NTZ6),0.651 ± 0.3 °C

# The list goes on.

row,Target,phosphopeptide melting temperature shift
1,RECQL phosphosite_608 (phosphosite position: 608) (UniProt P46063),0.464 ± 0.81 °C
2,REEP3 phosphosite_210 (phosphosite position: 210) (UniProt Q6NUK4),-0.326 °C
3,REEP4 phosphosite_152 (phosphosite position: 152) (UniProt Q9H6H4),0.826 ± 0.71 °C
4,RNF113A phosphosite_84 (phosphosite position: 84) (UniProt O15541),-0.927 ± 0.83 °C
5,RNF113A phosphosite_85 (phosphosite position: 85) (UniProt O15541),-0.927 ± 0.83 °C
6,RPRD1B phosphosite_166 (phosphosite position: 166) (UniProt Q9NQG5),-0.104 ± 0.39 °C
7,RPS3A phosphosite_236 (phosphosite position: 236) (UniProt P61247),-1.02 ± 0.98 °C
8,RPS3A phosphosite_238 (phosphosite position: 238) (UniProt P61247),-0.706 °C
9,RRAGC phosphosite_95 (phosphosite position: 95) (UniProt Q9HB90),-3.2 ± 0.67 °C
10,RRBP1 phosphosite_615 (phosphosite position: 615) (UniProt Q9P2E9),-0.0273 ± 0.83 °C
11,SAP30 phosphosite_131 (phosphosite position: 131) (UniProt O75446),-0.503 °C
12,SAP30 phosphosite_138 (phosphosite position: 138) (UniProt O75446),0.302 °C
13,SAP30L phosphosite_99 (phosphosite position: 99) (UniProt Q9HAJ7),1.37 °C
14,SART1 phosphosite_448 (phosphosite position: 448) (UniProt O43290),3.43 °C
15,SASH1 phosphosite_699 (phosphosite position: 699) (UniProt O94885),-1.45 °C
16,SASH1 phosphosite_721 (phosphosite position: 721) (UniProt O94885),1.23 ± 0.79 °C
17,SASH1 phosphosite_813 (phosphosite position: 813) (UniProt O94885),-0.538 °C
18,SASH1 phosphosite_1028 (phosphosite position: 1028) (UniProt O94885),3.731 ± 0.025 °C
